These are yes or no findings as the source states them, for the method shown. In cells and extracts the contact can be indirect. Some entries that bind do so weakly or less than the wild type.
Biological target: Flag-BRAF (wild type) (UniProt P15056)
Test: co-IP; in vitro: immunopurified Flag-BRAF proteins, unmodified or after in vitro ubiquitination, incubated with the partner; anti-Flag immunoprecipitates blotted (Fig. 6a, b, d; Supplementary Fig. 9a-f, i taken as the same comparison)

Sequences of proteins named here, by UniProt entry; tags and fusion partners are left off.
UniProt P15056: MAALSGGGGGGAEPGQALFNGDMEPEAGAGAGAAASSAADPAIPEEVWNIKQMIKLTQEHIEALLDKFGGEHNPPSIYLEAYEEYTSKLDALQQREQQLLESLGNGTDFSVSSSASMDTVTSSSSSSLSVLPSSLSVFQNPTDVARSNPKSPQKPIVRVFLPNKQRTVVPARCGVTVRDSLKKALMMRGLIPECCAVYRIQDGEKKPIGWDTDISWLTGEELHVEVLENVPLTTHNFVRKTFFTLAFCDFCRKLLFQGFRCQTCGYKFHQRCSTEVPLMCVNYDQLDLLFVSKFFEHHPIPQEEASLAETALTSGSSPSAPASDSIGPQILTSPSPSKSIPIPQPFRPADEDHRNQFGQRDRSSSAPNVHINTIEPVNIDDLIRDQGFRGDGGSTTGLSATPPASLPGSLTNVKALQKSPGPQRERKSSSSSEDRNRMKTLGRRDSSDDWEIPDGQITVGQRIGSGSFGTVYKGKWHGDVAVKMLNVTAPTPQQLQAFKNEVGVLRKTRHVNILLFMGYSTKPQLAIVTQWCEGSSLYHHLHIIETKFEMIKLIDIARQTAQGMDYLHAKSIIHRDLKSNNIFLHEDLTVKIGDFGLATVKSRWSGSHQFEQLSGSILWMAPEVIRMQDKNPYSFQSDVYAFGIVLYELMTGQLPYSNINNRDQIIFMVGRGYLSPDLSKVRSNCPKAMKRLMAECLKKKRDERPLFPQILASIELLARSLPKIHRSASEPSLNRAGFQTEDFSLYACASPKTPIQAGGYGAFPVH

B1: KSR1 (Supplementary Fig. 9e) (protein, UniProt Q8IVT5 1-923)
chain: MDRAALRAAAMGEKKEGGGGGDAAAAEGGAGAAASRALQQCGQLQKLIDISIGSLRGLRTKCAVSNDLTQQEIRTLEAKLVRYICKQRQCKLSVAPGERTPELNSYPRFSDWLYTFNVRPEVVQEIPRDLTLDALLEMNEAKVKETLRRCGASGDECGRLQYALTCLRKVTGLGGEHKEDSSWSSLDARRESGSGPSTDTLSAASLPWPPGSSQLGRAGNSAQGPRSISVSALPASDSPTPSFSEGLSDTCIPLHASGRLTPRALHSFITPPTTPQLRRHTKLKPPRTPPPPSRKVFQLLPSFPTLTRSKSHESQLGNRIDDVSSMRFDLSHGSPQMVRRDIGLSVTHRFSTKSWLSQVCHVCQKSMIFGVKCKHCRLKCHNKCTKEAPACRISFLPLTRLRRTESVPSDINNPVDRAAEPHFGTLPKALTKKEHPPAMNHLDSSSNPSSTTSSTPSSPAPFPTSSNPSSATTPPNPSPGQRDSRFNFPAAYFIHHRQQFIFPVPSAGHCWKCLLIAESLKENAFNISAFAHAAPLPEAADGTRLDDQPKADVLEAHEAEAEEPEAGKSEAEDDEDEVDDLPSSRRPWRGPISRKASQTSVYLQEWDIPFEQVELGEPIGQGRWGRVHRGRWHGEVAIRLLEMDGHNQDHLKLFKKEVMNYRQTRHENVVLFMGACMNPPHLAIITSFCKGRTLHSFVRDPKTSLDINKTRQIAQEIIKGMGYLHAKGIVHKDLKSKNVFYDNGKVVITDFGLFGISGVVREGRRENQLKLSHDWLCYLAPEIVREMTPGKDEDQLPFSKAADVYAFGTVWYELQARDWPLKNQAAEASIWQIGSGEGMKRVLTSVSLGKEVSEILSACWAFDLQERPSFSLLMDMLEKLPKLNRRLSHPGHFWKSADINSSKVVPRFERFGLGVLESSNPKM
  binding: binds
